The experiment concerns the target T1, FLAG-CTIF (UniProt O43310).
T1 sequence: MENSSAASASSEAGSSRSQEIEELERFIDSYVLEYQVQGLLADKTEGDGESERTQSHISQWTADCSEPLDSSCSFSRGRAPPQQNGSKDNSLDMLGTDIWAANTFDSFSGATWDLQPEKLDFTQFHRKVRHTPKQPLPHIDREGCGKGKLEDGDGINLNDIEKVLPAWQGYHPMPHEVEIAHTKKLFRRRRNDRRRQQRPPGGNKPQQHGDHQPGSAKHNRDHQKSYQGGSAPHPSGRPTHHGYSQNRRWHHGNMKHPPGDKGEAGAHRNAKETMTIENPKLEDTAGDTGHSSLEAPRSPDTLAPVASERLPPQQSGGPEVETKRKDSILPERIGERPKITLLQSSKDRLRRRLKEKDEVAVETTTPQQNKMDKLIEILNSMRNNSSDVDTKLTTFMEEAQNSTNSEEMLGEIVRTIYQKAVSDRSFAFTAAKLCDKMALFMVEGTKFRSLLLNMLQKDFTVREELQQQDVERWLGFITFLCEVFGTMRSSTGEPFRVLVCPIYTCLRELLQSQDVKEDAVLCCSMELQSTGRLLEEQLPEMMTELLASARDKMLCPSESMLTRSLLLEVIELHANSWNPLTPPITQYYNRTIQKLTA
In words: co-IP; IP of FLAG-CTIF with α-FLAG antibody from HEK293T extracts, western blot; cells undepleted or depleted of YTHDF2, with or without MG132 (Supplementary Fig. 3a, Fig. 8b). For orientation: In western blotting, separated proteins are transferred to a membrane and probed.

Results are given in words; binding and its absence hold for the method and conditions named. In cells and extracts the contact can be indirect. A result given as binding can be weak or reduced; the word gives no strength. Where a sequence is shown, tags or fusion partners need not be part of it.

In the case of “dynein motor protein (human (endogenous in HEK293T))”, the binding entry is “binds”.

For the origin of these results see paper PMC10558514.
